Measured values from article PMC9271913.

The chains behind the UniProt entries cited, without tags or fusion partners. Residues count along the entry.
UniProt Q8BJY1: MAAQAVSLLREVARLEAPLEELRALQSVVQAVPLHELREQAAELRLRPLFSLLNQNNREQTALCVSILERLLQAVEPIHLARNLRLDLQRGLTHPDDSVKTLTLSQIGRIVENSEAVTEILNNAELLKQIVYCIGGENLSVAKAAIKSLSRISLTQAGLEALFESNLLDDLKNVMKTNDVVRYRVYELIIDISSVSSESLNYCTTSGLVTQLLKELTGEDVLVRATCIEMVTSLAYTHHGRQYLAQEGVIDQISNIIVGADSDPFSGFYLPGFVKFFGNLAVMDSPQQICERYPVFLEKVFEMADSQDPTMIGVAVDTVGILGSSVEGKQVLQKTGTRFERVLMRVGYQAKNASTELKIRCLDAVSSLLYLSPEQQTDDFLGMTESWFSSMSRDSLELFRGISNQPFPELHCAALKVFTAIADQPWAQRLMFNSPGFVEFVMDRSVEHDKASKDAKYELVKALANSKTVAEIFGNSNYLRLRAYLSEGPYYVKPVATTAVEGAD
UniProt Q8BMS1, residues 37-763: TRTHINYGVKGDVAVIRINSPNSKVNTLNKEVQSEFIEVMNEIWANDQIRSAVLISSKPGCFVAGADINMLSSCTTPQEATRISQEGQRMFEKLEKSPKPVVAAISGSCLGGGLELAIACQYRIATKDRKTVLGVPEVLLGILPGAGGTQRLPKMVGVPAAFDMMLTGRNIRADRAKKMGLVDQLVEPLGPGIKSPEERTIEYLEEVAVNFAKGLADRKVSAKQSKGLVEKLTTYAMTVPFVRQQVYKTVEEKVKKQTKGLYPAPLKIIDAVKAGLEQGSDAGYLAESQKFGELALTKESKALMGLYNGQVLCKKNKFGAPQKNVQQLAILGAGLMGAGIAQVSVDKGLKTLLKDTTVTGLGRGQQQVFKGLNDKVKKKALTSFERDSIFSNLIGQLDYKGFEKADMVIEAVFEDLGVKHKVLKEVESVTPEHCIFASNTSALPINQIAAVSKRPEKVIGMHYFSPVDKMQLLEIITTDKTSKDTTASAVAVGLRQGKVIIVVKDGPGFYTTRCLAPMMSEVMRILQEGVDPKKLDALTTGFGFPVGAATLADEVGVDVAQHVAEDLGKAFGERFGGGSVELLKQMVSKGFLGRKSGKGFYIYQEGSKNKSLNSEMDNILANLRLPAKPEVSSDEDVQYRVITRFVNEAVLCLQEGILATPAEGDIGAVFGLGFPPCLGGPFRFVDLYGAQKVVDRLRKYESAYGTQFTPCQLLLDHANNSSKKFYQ
UniProt Q61361, residues 23-883: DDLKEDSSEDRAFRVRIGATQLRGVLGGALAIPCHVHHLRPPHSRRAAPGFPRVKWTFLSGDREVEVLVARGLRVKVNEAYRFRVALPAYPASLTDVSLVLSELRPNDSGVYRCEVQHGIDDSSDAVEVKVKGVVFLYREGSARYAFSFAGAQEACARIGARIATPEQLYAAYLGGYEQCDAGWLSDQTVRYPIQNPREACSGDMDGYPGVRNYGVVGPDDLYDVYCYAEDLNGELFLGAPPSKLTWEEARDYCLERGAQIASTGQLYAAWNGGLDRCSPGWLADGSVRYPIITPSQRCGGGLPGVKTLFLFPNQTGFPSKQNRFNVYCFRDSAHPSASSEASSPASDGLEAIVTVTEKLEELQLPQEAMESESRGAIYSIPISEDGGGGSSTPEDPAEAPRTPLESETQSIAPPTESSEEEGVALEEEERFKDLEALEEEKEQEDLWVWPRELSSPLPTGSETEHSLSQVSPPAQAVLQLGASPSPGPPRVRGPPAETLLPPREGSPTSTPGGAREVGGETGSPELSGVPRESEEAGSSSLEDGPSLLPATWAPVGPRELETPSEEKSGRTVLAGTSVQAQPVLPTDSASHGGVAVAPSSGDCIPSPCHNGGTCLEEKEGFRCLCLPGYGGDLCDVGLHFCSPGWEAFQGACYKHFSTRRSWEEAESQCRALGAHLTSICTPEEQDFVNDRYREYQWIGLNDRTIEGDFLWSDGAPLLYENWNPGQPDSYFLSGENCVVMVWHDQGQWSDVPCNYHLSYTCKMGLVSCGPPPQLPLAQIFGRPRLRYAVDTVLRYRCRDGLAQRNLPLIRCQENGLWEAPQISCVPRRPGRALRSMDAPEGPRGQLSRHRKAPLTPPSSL
UniProt Q9EPN1: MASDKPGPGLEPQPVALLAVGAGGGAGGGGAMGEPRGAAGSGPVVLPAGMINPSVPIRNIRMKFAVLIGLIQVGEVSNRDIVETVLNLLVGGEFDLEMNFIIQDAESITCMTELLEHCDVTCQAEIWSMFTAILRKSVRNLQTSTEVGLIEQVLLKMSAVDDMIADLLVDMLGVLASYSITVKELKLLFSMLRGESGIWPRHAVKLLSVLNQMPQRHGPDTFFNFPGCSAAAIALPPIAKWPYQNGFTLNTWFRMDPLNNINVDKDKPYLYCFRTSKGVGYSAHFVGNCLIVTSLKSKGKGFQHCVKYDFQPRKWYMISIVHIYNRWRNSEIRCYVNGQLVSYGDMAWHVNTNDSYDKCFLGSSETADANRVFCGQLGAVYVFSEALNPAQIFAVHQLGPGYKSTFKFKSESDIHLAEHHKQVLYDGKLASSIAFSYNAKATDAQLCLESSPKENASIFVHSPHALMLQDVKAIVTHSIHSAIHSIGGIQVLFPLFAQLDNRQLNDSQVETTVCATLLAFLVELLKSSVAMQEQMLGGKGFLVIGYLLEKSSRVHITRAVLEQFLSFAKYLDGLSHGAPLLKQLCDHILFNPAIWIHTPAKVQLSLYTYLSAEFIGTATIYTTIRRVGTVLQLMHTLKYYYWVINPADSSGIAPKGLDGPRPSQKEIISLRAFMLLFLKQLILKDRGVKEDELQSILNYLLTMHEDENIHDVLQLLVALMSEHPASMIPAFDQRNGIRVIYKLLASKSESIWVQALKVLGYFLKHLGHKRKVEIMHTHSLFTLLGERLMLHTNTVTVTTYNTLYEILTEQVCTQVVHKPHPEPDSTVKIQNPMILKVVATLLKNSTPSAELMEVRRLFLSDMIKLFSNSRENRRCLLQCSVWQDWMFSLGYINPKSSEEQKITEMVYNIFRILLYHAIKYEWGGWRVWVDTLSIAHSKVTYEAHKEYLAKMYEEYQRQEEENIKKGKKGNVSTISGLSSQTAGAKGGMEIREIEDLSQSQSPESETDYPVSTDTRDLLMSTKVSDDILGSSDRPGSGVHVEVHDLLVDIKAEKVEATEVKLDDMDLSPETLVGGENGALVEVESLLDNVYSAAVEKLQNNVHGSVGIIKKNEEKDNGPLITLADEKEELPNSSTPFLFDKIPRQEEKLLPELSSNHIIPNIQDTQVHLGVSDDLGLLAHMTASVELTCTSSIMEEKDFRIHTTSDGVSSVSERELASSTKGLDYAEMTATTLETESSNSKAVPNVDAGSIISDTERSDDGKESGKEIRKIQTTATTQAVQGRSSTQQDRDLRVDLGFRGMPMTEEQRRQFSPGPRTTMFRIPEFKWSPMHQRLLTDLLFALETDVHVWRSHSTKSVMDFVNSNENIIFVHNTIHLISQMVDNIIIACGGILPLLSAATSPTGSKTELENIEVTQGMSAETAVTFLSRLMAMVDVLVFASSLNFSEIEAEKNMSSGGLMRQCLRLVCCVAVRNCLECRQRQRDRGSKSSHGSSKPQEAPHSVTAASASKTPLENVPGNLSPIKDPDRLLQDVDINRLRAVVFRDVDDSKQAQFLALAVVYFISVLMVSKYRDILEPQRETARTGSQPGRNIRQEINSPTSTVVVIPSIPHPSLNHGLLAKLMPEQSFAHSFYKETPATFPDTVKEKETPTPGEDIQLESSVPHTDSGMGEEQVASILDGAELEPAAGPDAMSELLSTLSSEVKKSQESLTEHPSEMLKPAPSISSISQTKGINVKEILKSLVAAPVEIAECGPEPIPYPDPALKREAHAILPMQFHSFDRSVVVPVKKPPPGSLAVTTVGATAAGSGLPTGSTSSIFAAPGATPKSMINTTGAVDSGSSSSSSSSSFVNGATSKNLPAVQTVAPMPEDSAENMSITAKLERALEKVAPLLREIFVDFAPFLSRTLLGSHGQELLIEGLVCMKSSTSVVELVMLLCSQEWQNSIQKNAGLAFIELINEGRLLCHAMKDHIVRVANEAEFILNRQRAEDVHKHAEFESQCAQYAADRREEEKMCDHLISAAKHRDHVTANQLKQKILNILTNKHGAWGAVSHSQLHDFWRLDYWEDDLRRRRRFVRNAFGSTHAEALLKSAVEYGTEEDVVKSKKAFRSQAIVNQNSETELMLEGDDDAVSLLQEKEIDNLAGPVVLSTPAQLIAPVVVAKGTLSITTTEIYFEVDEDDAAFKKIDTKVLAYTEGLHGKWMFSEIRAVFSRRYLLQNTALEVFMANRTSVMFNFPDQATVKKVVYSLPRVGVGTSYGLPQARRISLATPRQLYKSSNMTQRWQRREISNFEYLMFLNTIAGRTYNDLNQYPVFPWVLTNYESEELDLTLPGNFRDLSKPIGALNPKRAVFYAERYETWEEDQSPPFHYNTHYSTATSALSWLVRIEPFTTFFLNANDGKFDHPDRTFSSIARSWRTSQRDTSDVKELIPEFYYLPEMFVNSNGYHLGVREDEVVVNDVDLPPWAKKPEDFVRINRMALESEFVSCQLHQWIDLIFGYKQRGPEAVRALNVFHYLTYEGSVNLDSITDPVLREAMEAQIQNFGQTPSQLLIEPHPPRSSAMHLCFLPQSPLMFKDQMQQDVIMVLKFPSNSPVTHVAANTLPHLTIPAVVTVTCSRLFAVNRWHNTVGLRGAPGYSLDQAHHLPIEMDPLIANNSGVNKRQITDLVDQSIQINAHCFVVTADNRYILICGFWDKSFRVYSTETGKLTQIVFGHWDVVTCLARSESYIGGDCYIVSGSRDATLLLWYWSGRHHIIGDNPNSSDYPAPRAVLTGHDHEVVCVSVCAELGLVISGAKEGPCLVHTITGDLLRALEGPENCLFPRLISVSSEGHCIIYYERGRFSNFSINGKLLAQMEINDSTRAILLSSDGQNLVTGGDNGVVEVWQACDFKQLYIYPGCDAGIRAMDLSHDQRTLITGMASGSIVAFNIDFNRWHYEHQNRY
UniProt P27773, residues 25-505: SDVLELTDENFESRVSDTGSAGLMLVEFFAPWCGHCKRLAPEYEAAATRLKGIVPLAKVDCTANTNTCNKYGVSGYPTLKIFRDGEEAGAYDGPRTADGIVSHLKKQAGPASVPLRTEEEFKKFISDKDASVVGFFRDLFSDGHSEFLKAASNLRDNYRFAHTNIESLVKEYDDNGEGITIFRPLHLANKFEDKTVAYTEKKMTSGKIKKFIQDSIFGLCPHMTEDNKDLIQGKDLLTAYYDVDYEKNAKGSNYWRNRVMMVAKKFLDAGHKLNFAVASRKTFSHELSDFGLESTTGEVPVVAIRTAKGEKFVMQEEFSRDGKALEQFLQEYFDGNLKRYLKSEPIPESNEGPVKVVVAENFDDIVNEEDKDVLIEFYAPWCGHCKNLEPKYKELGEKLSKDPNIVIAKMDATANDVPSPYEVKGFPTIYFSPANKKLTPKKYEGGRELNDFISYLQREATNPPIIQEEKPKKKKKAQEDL
UniProt P61202: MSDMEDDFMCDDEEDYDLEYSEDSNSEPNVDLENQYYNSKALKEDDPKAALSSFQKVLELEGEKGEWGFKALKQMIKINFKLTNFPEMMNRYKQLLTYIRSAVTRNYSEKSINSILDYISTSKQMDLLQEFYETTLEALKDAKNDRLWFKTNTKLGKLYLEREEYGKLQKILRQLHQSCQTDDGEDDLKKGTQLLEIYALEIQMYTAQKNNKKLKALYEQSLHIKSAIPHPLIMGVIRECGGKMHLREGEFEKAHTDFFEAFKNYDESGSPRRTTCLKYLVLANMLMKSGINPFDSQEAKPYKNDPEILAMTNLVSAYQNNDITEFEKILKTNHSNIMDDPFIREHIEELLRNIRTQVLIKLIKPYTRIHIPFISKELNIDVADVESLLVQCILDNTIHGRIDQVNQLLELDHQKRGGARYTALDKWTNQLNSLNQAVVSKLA
UniProt Q8BNW9: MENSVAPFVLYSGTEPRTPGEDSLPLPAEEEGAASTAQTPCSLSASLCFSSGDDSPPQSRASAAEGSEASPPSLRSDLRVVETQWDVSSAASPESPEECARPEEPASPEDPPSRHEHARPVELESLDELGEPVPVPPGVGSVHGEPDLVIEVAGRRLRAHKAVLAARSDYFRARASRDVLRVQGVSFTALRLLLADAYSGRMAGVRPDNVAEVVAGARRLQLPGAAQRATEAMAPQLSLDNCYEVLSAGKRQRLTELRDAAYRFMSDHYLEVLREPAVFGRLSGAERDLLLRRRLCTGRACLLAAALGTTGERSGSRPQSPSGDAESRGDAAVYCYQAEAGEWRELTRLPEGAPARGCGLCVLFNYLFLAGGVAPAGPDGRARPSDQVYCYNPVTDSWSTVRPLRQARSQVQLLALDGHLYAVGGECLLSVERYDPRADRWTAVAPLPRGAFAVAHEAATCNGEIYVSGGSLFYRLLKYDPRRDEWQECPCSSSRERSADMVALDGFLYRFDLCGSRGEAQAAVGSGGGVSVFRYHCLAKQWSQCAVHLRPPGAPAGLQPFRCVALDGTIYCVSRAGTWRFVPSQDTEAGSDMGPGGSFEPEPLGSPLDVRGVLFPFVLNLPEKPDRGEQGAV

T1: Retention in endoplasmic reticulum 1 (Rer1), mouse (mouse (endogenous in brain)) (UniProt Q9CQU3)
T1 sequence: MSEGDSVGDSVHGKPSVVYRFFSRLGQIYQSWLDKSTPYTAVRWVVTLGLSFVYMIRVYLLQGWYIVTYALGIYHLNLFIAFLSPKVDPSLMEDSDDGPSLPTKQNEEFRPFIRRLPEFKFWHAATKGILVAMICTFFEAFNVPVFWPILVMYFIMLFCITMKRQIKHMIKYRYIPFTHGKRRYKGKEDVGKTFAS


target: T1, Retention in endoplasmic reticulum 1 (Rer1), mouse (mouse (endogenous in brain)); experiment: affinity purification with mass spectrometry; anti-RER1 immunoprecipitation of hippocampus lysates (gentle RIPA lysis buffer) of PTZ-induced Nedd4-2+/- and wild-type mice, LC-MS/MS; IgG-precipitated proteins subtracted; proteins present in all four replicates of a group defined as positive

binding	Molecule
binds	PHD finger protein 24 isoform X1 (from UniProt Q80TL4 1-400)
binds	26S proteasome non-ATPase regulatory subunit 5 (from UniProt Q8BJY1 1-504)
binds	RNA-binding protein EWS isoform X4 (from UniProt Q61545 1-655)
binds	Trifunctional enzyme subunit alpha, mitochondrial (from UniProt Q8BMS1 37-763)
binds	Regulatory-associated protein of mTOR (from UniProt Q8K4Q0 1-1335)
binds	Synapsin I (from UniProt O88935 1-706)
binds	Hspa9 (from UniProt P38647 47-679)
binds	Serine/threonine-protein phosphatase 2A 65 kDa regulatory subunit A alpha isoform (from UniProt Q76MZ3 1-589)
binds	Brevican core protein isoform X3 (from UniProt Q61361 23-883)
binds	Sodium/potassium/calcium exchanger 2 isoform X4 (from UniProt Q8BUN9 1-666)
binds	Serine/arginine repetitive matrix protein 2 (from UniProt Q8BTI8 1-2703)
binds	Neurobeachin (from UniProt Q9EPN1 1-2936)
binds	ATP synthase membrane subunit f (mouse (endogenous in hippocampus))
binds	C-terminal-binding protein 1 (from UniProt O88712 1-441)
binds	T-complex protein 1 subunit epsilon (from UniProt P80316 1-541)
binds	Microtubule-associated protein (from UniProt P27546 1-1125)

binding	Molecule
binds	Kinesin-like protein KIF1A (from UniProt P33173 1-1695)
binds	Pdia3 (from UniProt P27773 25-505)
binds	T-complex protein 1 subunit zeta (from UniProt P80317 1-531)
binds	COP9 signalosome complex subunit 2 (from UniProt P61202 1-443)
binds	Cathepsin B (from UniProt P10605)
binds	Myosin-10 (from UniProt Q61879 1-1976)
binds	Dnaja1 (from UniProt P63037 1-397)
binds	Kelch repeat and BTB domain-containing protein 11 (from UniProt Q8BNW9 1-633)
binds	Adenosylhomocysteinase (from UniProt Q80SW1 1-530)
binds	Ras GTPase-activating protein-binding protein 2 isoform X1 (protein, UniProt P97379 1-482) MVMEKPSPLLVGREFVRQYYTLLNKAPEYLHRFYGRNSSYVHGGVDASGKPQEAVYGQNDIHHKVLSLNFSECHTKIRHVDAHATLSDGVVVQVMGLLSNSGQPERKFMQTFVLAPEGSVPNKFYVHNDMFRYEDEVFGDSEPELDEESEDEVEEEQEDRQPSPEPVQENANSAYYDAHPVTNGIEEPLEESSHEPEPEPESETKTEELKPQVEEKHLEELEEKSATPPPAEPASLPQEPPKAFSWASVTSKNLPPSGTVSSSGIPPHVKAPVSQPRVDAKPEVQSQPPRVREQRPRERPGFPPRGPRPGRGDMEQNDSDNRRIIRYPDSHQLFVGNLPHDIDENELKEFFMSFGNVVELRINTKGVGGKLPNFGFVVFDDSEPVQRILIAKPIMFRGEVRLNVEEKKTRAARERETRGGGDDRRDIRRNDRGPGGPRGIVGGGMMRDRDGRGPPPRGGMTQKLGSGRGTGQMEGRFTGQRR
binds	ARF GTPase-activating protein GIT1 isoform X2 (protein, UniProt Q68FF6 1-770) MSRKGPRAEVCADCSAPDPGWASISRGVLVCDECCSVHRSLGRHISIVKHLRHSAWPPTLLQMVHTLASNGANSIWEHSLLDPAQVQSGRRKANPQDKVHPIKSEFIRAKYQMLAFVHKLPCRDDDGVTAKDLSKQLHSSVRTGNLETCLRLLSLGAQANFFHPEKGTTPLHVAAKAGQTLQAELLVVYGADPGSPDVNGRTPIDYARQAGHHELAERLVECQYELTDRLAFYLCGRKPDHKNGHYIIPQMADRSRQKCMSQSLDLSELAKAAKKKLQALSNRLFEELAMDVYDEVDRRENDAVWLATQNHSTLVTERSAVPFLPVNPEYSATRNQGRQKLARFNAREFATLIIDILSEAKRRQQGKSLSSPTDNLELSARSQSELDDQHDYDSVASDEDTDQEPLPSAGATRNNRARSMDSSDLSDGAVTLQEYLELKKALATSEAKVQQLMKVNSSLSDELRRLQREIHKLQAENLQLRQPPGPVPPPSLPSERAEHTLMGPGGSTHRRDRQAFSMYEPGSALKPFGGTPGDELATRLQPFHSTELEDDAIYSVHVPAGLYRIRKGVSASSVPFTPSSPLLSCSQEGSRHASKLSRHGSGADSDYENTQSGDPLLGLEGKRFLELSKEDELHPELESLDGDLDPGLPSTEDVILKTEQVTKNIQELLRAAQEFKHDSFVPCSEKIHLAVTEMASLFPKRPALEPVRSSLRLLNASAYRLQSECRKTVPPEPGAPVDFQLLTQQVIQCAYDIAKAAKQLVTITTREKKQ
binds	Long-chain specific acyl-CoA dehydrogenase, mitochondrial (protein, UniProt P51174 31-430) GAEARLETPSAKKLTDVGIRRIFSSEHDIFRESVRKFFQEEVIPHHTEWEKAGEVSREVWEKAGKQGLLGINIAEKHGGIGGDLLSTAVTWEEQAYSNCTGPGFSLHSDIVMPYIANYGTKEQIEKFIPQMTAGKCIGAIAMTEPGAGSDLQGVRTNAKRSGSDWILNGSKVFITNGWLSDLVIVVAVTNREARSPAHGISLFLVENGMKGFIKGRKLHKMGMKAQDTAELFFEDVRLPANALLGEENKGFYYLMQELPQERLLIAELAISACEFMFEETRNYVKQRKAFGKTVAHIQTVQHKLAELKTHICVTRAFVDSCLQLHETKRLDSGSASMAKYWASELQNSVAYECVQLHGGWGYMWEYPIAKAYVDARVQPIYGGTNEIMKELIARQIVSDS
binds	Epidermal growth factor receptor substrate 15-like 1 (protein, UniProt Q60902 1-907) MAAPLVPLSQQIPGGNPLYESYYKQVDPAYTGRVGASEAALFLKKSGLSDIILGKIWDLADPEGKGFLDKQGFYVALRLVACAQSGHEVTLSSLSLTMPPPKFHDTSSPLMATQSSAETHWAVRVEEKAKFDGIFESLLPVNGLLSGDKVKPVLMNSKLPLDVLGRVWDLSDIDKDGHLDRDEFAVAMHLVYRALEKEPVPSILPPPLIPPSKRKKTVFAGAVPVLPASPPPKDSLRSTPSHGSVSSLNSTGSLSPKHSVKQPPVAWVVPVADKMRFDEIFLKTDLDLDGYVSGQEVKEIFMHSGLTQNLLAHIWALADTRQTGKLSKEQFALAMYFIQQKVSKGIDPPQVLSPDMVPPSERGTPIPDSSSTLASGEFTGVKELDDISQEIAQLQREKYSLEQDIREKEEAIRQKTSEVQELQNDLDRETSSLQELEAQKQDAQDRLDEMDQQKAKLRDMLSDVRQKCQDETQTISSLKTQIQSQESDLKSQEDDLNRAKSELNRLQQEETQLEQSIQAGRAQLETILRSLKCTQDDINQARSKLSQLQESHLEAHRSLEQYDQVPDGVSGTSLPDLATLNEGILLAERGGFGAMDDPFKNKALLFSNNSQELHPDPFQAEDPFKSDPFKGADPFKGDPFQSDPFSEQQTAATDPFGGDPFKESDPFHSSSSDDFFKKQTKNDPFTSDPFTKNPSLPSKLDPFESSDPFSSSSISSKGSDPFGTLDPFGSSSFSSAEGFADFSQMSKPPPSGPFSSSLGGTGFSDDPFKSKQDTPALPPKKPAPPRPKPPSGQSTPVSQLGSSDFPESPDPFQPLGADSGDPFQNKKGFGDPFSGKDPFAPSSSAKPPKTSSSGFADFTSFGNEEQQLAWAKRESEKAEQERLARLRRQEQEDLELAIALSKADMPA
binds	Coatomer subunit beta, also known as the coat protein complex 1 (protein, UniProt Q9JIF7 1-953) MTAAENVCYTLINVPMDSEPPSEISLKNDLEKGDVKSKTEALKKVIIMILNGEKLPGLLMTIIRFVLPLQDHTIKKLLLVFWEIVPKTTPDGRLLHEMILVCDAYRKDLQHPNEFIRGSTLRFLCKLKEAELLEPLMPAIRACLEHRHSYVRRNAVLAIYTIYRNFEHLIPDAPELIHDFLVNEKDASCKRNAFMMLIHADQDRALDYLSTCIDQVQTFGDILQLVIVELIYKVCHANPSERARFIRCIYNLLQSSSPAVKYEAAGTLVTLSSAPTAIKAAAQCYIDLIIKESDNNVKLIVLDRLVELKEHPAHERVLQDLVMDILRVLSTPDLEVRKKTLQLALDLVSSRNVEELVIVLKKEVIKTNNVSEHEDTDKYRQLLVRTLHSCSVRFPDMAANVIPVLMEFLSDSNEAAAADVLEFVREAIQRFDNLRMLIVEKMLEVFHAIKSVKIYRGALWILGEYCSTKEDIQSVMTEVRRSLGEIPIVESEIKKEAGELKPEEEITVGPVQKLVTEMGTYATQSALSSSRPTKKEEDRPPLRGFLLDGDFFVAASLATTLTKIALRYVALVQEKKKQNSFVAEAMLLMATILHLGKSSLPKKPITDDDVDRISLCLKVLSECSPLMNDIFNKECRQSLSQMLSAKLEEEKLSQKKESEKRNVTVQPDDPISFMQLTAKNEMNCKEDQFQLSLLAAMGNTQRKEAADPLASKLNKVTQLTGFSDPVYAEAYVHVNQYDIVLDVLVVNQTSDTLQNCTLELATLGDLKLVEKPSPLTLAPHDFANIKANVKVASTENGIIFGNIVYDVSGAASDRNCVVLSDIHIDIMDYIQPATCTDAEFRQMWAEFEWENKVTVNTNMTDLNDYLQHILKSTNMKCLTPEKALSGYCGFMAANLYARSIFGEDALANVSIEKPVHQGPDAAVTGHIRIRAKSQGMALSLGDKINLSQKKTSL
binds	Complement C1q subcomponent subunit A (protein, UniProt P98086 23-245) EDVCRAPNGKDGAPGNPGRPGRPGLKGERGEPGAAGIRTGIRGFKGDPGESGPPGKPGNVGLPGPSGPLGDSGPQGLKGVKGNPGNIRDQPRPAFSAIRQNPMTLGNVVIFDKVLTNQESPYQNHTGRFICAVPGFYYFNFQVISKWDLCLFIKSSSGGQPRDSLSFSNTNNKGLFQVLAGGTVLQLRRGDEVWIEKDPAKGRIYQGTEADSIFSGFLIFPSA
binds	Enoyl-CoA hydratase, mitochondrial isoform X2 (protein, UniProt Q8BH95 28-290) ASGANFQYIITEKKGKNSSVGLIQLNRPKALNALCNGLIEELNQALETFEQDPAVGAIVLTGGDKAFAAGADIKEMQNRTFQDCYSSKFLSHWDHITRVKKPVIAAVNGYALGGGCELAMMCDIIYAGEKAQFGQPEILLGTIPGAGGTQRLTRAVGKSLAMEMVLTGDRISAQDAKQAGLVSKIFPVEKLVEEAIQCAEKIASNSKIVVAMAKESVNAAFEMTLTEGNKLEKRLFYSTFATDDRREGMTAFVEKRKANFKDH

No constants are given. Whether binding was seen depends on the method and setting. Binding seen in cells or lysates may run through a third protein. These calls come from enrichment with a bait or labelling near it, and not all partners need be listed.
